Experimental data as given in US20260102383A1, “LPAR1 Inhibitors” (AbbVie Inc., priority 2024, published 2026).
Structures were worked out from names or drawings and are uncertain.

Protein sequences, listed by entry. Tags and fused reporters are not part of them.
UniProt Q92633, whole entry: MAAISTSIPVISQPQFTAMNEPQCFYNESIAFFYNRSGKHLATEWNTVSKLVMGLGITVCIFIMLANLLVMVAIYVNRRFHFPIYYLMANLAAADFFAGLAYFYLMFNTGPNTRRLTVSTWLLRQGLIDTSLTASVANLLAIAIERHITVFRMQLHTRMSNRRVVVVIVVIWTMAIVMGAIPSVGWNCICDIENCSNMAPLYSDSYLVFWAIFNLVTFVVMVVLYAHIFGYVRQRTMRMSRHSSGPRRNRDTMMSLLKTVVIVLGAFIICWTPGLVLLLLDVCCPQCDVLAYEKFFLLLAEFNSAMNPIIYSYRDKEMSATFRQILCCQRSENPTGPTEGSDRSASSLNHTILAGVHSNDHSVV

Each molecule was assayed against human LPAR1 (Homo sapiens, UniProt Q92633) (assay: Arrestin assay (Arrestin Reporter EDG2-bla U2OS), inhibition of LPA-stimulated signal). Conditions: read-out: Arrestin Reporter EDG2-bla U2OS Human Merged IC50; TangoEDG2-bla U2OS cells expressing human LPAR1; 0.25 μM LPA.
Experimental: The inhibitory activity of compounds 15, 62, 77, 84 and 169 against LPAR1 was measured using an Arrestin assay in U2OS cells expressing human LPAR1.
FreeStyle media was warmed in a 37° C. water bath. Cryo-preserved vial(s) of TangoEDG2-bla U2OS cells were rapidly thawed in a 37° C. water bath. The thawed cells were added to FreeStyle media and cells were pelleted at 300×g for 5 minutes. The supernatant was aspirated, and cells were resuspended in FreeStyle media. Cell density was adjusted to 0.25×10^6 cells/mL. Cells (1×10^4 in 40 μL) were added to each well of Greiner 384 well black cell plate(s). Cell plate(s) were placed in a humidified 37° C./5% CO2 incubator for 18-20 hours. Dilutions of test compound were prepared at 6× final concentration; 12-point, 3-fold dilutions using HH Buffer (1×HBSS plus 20 mM HEPES). The 6× test compound was then added to the cell plate(s) at 10 μL/well. The final concentration ranged from 10 μM to 0.00006 μM. Cell plate(s) were incubated in a humidified 37° C./5% CO2 incubator for 1 hour. During the incubation, 6×LPA was prepared at 1.5 μM in 0.1% BSA HH Buffer. After the 1-hour incubation of test compound with cells, the LPA was added to the cell plate(s) at 10 μL/well (final LPA concentration of 0.25 μM). Cell plate(s) were returned to a humidified 37° C./5% CO2 incubator for 3 hours. The Development solution was made up per the LiveBLAzerFRET B/G kit protocol. The Development solution was added to the cell plate(s) at 10 μL/well. Cell plates were incubated in the dark at room temperature for 2 hours. Plate(s) were read on an Envision Plate Reader (Perkin Elmer) to read fluorescence; excitation at 409 nm with emission at 460 nm and 530 nm. Raw Data for analysis is the ratio of emission at 460 nm divided by emission 530 nm. The formula used to determine % Inhibition is as follows (1−(Raw Data−Low Average)/(High Average−Low Average))*100. Percent Inhibition was plotted to determine IC50 value with GraphPad Prism 9.5.0 software using Variable slope 4-parameter curve fit analysis.
Additional compounds of the present disclosure were synthesized in a manner similar to the compounds described above and understood by a person of ordinary skill in the art. The inhibitory activity of the compounds of the present disclosure against LPAR1 was measured using the above-referenced Arrestin Assay protocol.
Work on COc1cnn(C2(C(=O)Nc3ccc(Cl)cc3OC(F)F)CCN(C[C@H](CC#N)C(=O)O)CC2)c1C(C)C yielded an IC50 of 0.0754 µM. COc1cnn(C2(C(=O)Nc3ccc(Cl)cc3OC(F)F)CCN(C[C@@H](CC#N)C(=O)O)CC2)c1C(C)C gave an IC50 of 0.118 µM. For CCOCC(CN1CCC(C(=O)Nc2ccc(Cl)cc2OC(F)F)(n2nccc2C(C)C)CC1)C(=O)O (stereo not shown), the IC50 was 0.0417 µM. In the case of COC(CN1CCC(C(=O)Nc2ccc(Cl)cc2OC(F)F)(n2nccc2C(C)C)CC1)C(=O)O (stereo not shown), the IC50 is reported as 0.088 µM.
